# Measured values published in PubChem BioAssay AID1439 (NMMLSC, 2008).
# Chains of the proteins cited; added tags and fusions are not shown.
# UniProt P09471, whole entry, looked up: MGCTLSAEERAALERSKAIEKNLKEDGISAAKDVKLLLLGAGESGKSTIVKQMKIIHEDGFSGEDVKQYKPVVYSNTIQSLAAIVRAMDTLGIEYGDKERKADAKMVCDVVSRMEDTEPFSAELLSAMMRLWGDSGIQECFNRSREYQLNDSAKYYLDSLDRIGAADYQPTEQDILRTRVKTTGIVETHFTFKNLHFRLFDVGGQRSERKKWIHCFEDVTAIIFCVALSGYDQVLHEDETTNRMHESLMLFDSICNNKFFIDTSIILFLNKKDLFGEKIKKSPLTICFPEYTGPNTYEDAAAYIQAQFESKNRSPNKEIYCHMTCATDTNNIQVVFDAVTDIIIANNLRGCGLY
# Among all 220,000 compounds or so, about 770 (0.35%) were called active. The shares of active, inactive and inconclusive entries below differ from those in the screen. Cut-off read from the data, not from the text of the source: active = binding response below about 49% or above about 150%; inconclusive = no clear call, values can overlap the other calls; inactive = in between.
# Biological target: Guanine nucleotide-binding protein G(o) subunit alpha (Homo sapiens) (UniProt P09471)
# Test: RGS7-Galphao binding modulators, primary screen, biochemical, multiplexed bead flow cytometry (AID 1439);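 note: fluorescent Galphao held in activated GDP-AlF4 state binding bead-coupled RGS7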
# Conditions: at 10 µM, actives lie on both sides
row,Compound,binding response (% of control)
1,Nc1cc(C(=O)O)c(N)c2c1C(=O)c1ccccc1C2=O,inconclusive: 96%
2,Cc1sc2c(c1C)C(=O)NC(c1ccccc1F)N2 (centres undefined),inconclusive: -103%
3,CC(OC(=O)Cc1coc2ccc3ccccc3c12)C(=O)NC(N)=O (centres undefined),inconclusive: 84.5%
4,O=C(CSc1ccc(-c2cccc([N+](=O)[O-])c2)nn1)NC1CCCC1,inactive: 97.9%
5,Cc1ccc(NC(=O)CNCC2CCCCC2)cc1S(=O)(=O)N(C)C,inconclusive: 94.3%
6,CCOc1cc(C(=O)NC(C)Cc2cccs2)cc(OCC)c1OCC (centres undefined),inconclusive: 93.9%
7,COc1ccc(N(C)S(=O)(=O)c2ccc(C)cc2)c([N+](=O)[O-])c1,inconclusive: 90.8%
8,COC(=O)CCC(=O)OC1(C)C(=O)C=C2C=C(C3CC3)N(c3ccccc3)C=C2C1=O (centres undefined),inconclusive: 92.2%
9,COc1cccc(OC)c1C(=O)NC(=S)NCc1ccccc1,inconclusive: 110%
10,Cc1ccc(S(=O)(=O)N2CCOCC2)cc1NC(=O)COC(=O)CNC(=O)c1ccc(C(C)(C)C)cc1,inactive: 95.9%
11,CC(C)(C)c1ccc(C(=O)CC(Sc2ccc(Cl)cc2)C(=O)O)cc1 (centres undefined),inconclusive: 94%
12,Cn1/c(=N/NC(=O)c2ccccc2F)sc2ccccc21,inactive: 103%
13,Cc1ccccc1C(=O)Nc1c(-c2cccs2)c(=O)c2ccccc2n1C,inconclusive: 109%
14,CCS(=O)c1scc(-c2ccc(Cl)cc2)c1C#N (centres undefined),inconclusive: 96.4%
15,CC(C)NC(=O)c1ccc2c3n(nc2c1)-c1ccc(Cl)cc1CO3,inconclusive: 105%
16,Cc1n[nH]c(=S)n(/N=C/c2cccc([N+](=O)[O-])c2)c1=O,inconclusive: 16.1%
17,CC(Oc1ccccc1)c1ccnc2nc(N3CCOCC3)nn12 (centres undefined),inconclusive: 111%
18,CCOP(=O)(OCC)C(Nc1ccccc1)c1ccccc1C(F)(F)F (centres undefined),inconclusive: 114%
19,CC(=O)Nc1cccc(/C(C)=N/Nc2nc3ccccc3s2)c1,inconclusive: 93.3%
20,CCN(CC)CCOc1ccc2c(c1)C(=NNC(=O)c1ccccn1)c1cc(OCCN(CC)CC)ccc1-2,active: 216% [activator]
21,Cc1ccc(NC(=O)Nc2ccc(F)cc2)cc1Cl,inactive: 107%
22,O=C1NC(C(F)(F)F)(C(F)(F)F)N=C2SC=CN12,inconclusive: 75%
23,CCOC(=O)CCCN1CC(O)=C(c2nc3ccccc3s2)C1=N,inconclusive: 116%

row,Compound,binding response (% of control)
1,O=C(NCc1cccnc1)c1ccc(Cn2cc(C(F)(F)F)ccc2=O)cc1,inconclusive: 92.3%
2,COc1ccccc1/C=C1\SC(=S)N(C(C(=O)O)c2ccccc2)C1=O (centres undefined),inconclusive: 48.5%
3,CC(C)c1ccc(N=C2N=C(N)c3ccccc32)cc1,inconclusive: 81.2%
4,CN(NS(=O)(=O)c1ccc(Cl)cc1)c1ncc(C(F)(F)F)cc1Cl,inconclusive: 95.3%
5,CC(C)(C)c1ccc(C(=O)Nc2ccc(O)c3c(=O)cc(-c4ccccc4Cl)oc23)cc1,inconclusive: 81.8%
6,CC(=O)n1c2c(c3ccccc31)OC(N)=C(C#N)C2c1cccc(Cl)c1Cl (centres undefined),inactive: 102%
7,CCCCn1c(=O)[nH]c(=O)c2c1nc(-c1ccc3ccccc3c1)n2CC,inconclusive: 104%
8,N#Cc1c(N(CCO)CCO)nc(N)c2c(N)nc3c(c12)CC(=O)N3Cc1cccs1,inconclusive: 62.2%
9,O=C(Nc1nc2cc3c(cc2s1)OCO3)c1cccc(N2C(=O)CCC2=O)c1,inconclusive: 171%
10,Cc1ccc(S(=O)(=O)NC(=O)Nc2ncc3c(n2)CC(c2ccco2)CC3=O)cc1 (centres undefined),inactive: 77%
11,N#Cc1c(N)n(-c2ccccc2N)c2nc3ccccc3nc12,inconclusive: 89.2%
12,Cc1ccc(C(=O)NCC(=O)OC(C)C(=O)Nc2ccc(N(C)C)cc2)cc1C (centres undefined),inconclusive: 81.3%
13,O=C1c2ccccc2C(=O)N1CCCCN(C(=O)c1ccc([N+](=O)[O-])cc1)c1ccc(Cl)cc1,inactive: 94%
14,CN(C)C(=O)C1CC(=O)OC12CCCCC2 (centres undefined),inconclusive: 146%
15,COC(=O)c1cccc(C23CC4(C2)[C@H](CN(C)[C@@H]4c2ccccc2)C3c2ccc(C(F)(F)F)cc2)c1 (some centres undefined),inconclusive: 93.4%
16,O=C(COC(=O)/C=C/c1cccs1)Nc1nc(-c2cccc(Br)c2)cs1,inconclusive: 104%
17,COc1cc(OC)c(OC)cc1/C=N/NC(=O)CCc1c(C)n[nH]c1C,inconclusive: 18.8%
18,Cn1cccc1/C=N/NC(=O)CSc1nc2ccccc2[nH]1,inconclusive: 114%
19,O=C(c1ccc(CNc2c(N3CCCC3)c(=O)c2=O)cc1)N1CC=C(c2ccccc2)CC1,inconclusive: 87.6%
20,NNC(=O)c1csc(-c2ccccc2)n1,inconclusive: 44.9%
21,CCN(CC)S(=O)(=O)c1cccc(C(=O)OCC(=O)NC(C)c2ccccc2)c1 (centres undefined),inactive: 102%
22,Cn1c(SCC(=O)N/N=C/c2ccc(O)c(O)c2)nc2ccccc21,inconclusive: 59.7%
23,CS(=O)(=O)c1ccc2nnn(OCC(=O)Nc3cccc(C#N)c3)c2c1,inconclusive: 194%

row,Compound,binding response (% of control)
1,COCC(C)NC(=O)c1ccc(CN2CCc3ccccc3C2)cc1 (centres undefined),inconclusive: 113%
2,C=CCSc1nnc2c(n1)OC(c1c(C)[nH]n(-c3ccccc3)c1=O)Nc1ccccc1-2 (centres undefined),inactive: 98.3%
3,COc1nc(-c2cnccn2)sc1C,inconclusive: 110%
4,CCOc1ccccc1NC(=O)C(OC(=O)c1ccc(N(C)C)cc1)c1ccccc1 (centres undefined),inactive: 102%
5,COc1ccc(C(C)=O)cc1COc1ccc(Cl)c(C)c1,inconclusive: 169%
6,CCN(CC)CCNC(=O)CNC(=S)N(CCCN1CCOCC1)Cc1cccs1,inconclusive: 84.4%
7,COc1ccc(-n2cnc3cc(C(=O)NCCN4CCOCC4)ccc32)cc1,inactive: 100%
8,COc1ccc(NC(=S)/N=C(\N)Nc2nc(C)c3ccccc3n2)cc1,inconclusive: 66.2%
9,Clc1ccc(C2CC(c3cccs3)n3ncnc3N2)cc1 (centres undefined),inconclusive: 37.8%
10,Nc1cc(OCC(F)(F)F)cc(OCC(F)(F)F)c1,inconclusive: 118%
11,O=c1c2cc(N3CCOCC3)ccc2[nH]c(=S)n1CCCN1CCCCCC1,inactive: 99.2%
12,Cc1cccc(C)c1N=Cc1c(C(F)(F)F)[nH][nH]c1=O,inconclusive: 101%
13,O=C(NC1=NCCS1)c1ccc(Cl)c(S(=O)(=O)N2CCCCCC2)c1,inconclusive: 94.7%
14,CN(C)CCNC(=O)c1sc2cccc(F)c2c1Cl,inconclusive: 122%
15,CCOC(=O)c1ccc(NC(=S)NCc2ccco2)cc1,inconclusive: 305%
16,COC(=O)C1=C(C)N(c2ccc(OC)cc2)C(C)=C(C(=O)OC)C1c1ccccc1,inconclusive: 153%
17,O=C(NNC(=O)C1CC1)c1cc2cc3ccccc3nc2s1,inconclusive: 92%
18,CCCn1nc(C(=O)Nc2nnc(CC)s2)c2ccccc2c1=O,inconclusive: 88.5%
19,CCN(CC)CC(=O)Nn1c(C)nc2c(ncn2-c2ccccc2)c1=O,inconclusive: 167%
20,O=C(Cn1cc(C(F)(F)F)ccc1=O)N/N=C/c1ccc(F)cc1,inactive: 103%
21,CCN1/C(=C/c2ccc3cc(C)ccc3[n+]2CC)Sc2cc(C)ccc21,inactive: 104%
22,Cc1ccccc1OCC(=O)OCn1nnc2ccccc2c1=O,inconclusive: 97.9%
23,Cn1c(C(O)C(O)c2ccccc2)nc2ccccc21 (centres undefined),inconclusive: 102%

row,Compound,binding response (% of control)
1,CN(C)c1oc(-c2ccccc2[N+](=O)[O-])nc1C#N,inconclusive: -15.8%
2,CN(C)c1ncc(CN2CCC(CO)(CCCc3ccccc3)CC2)s1,inconclusive: 92.4%
3,COc1ccc(S(=O)(=O)N2CCOCC2)cc1NC(=O)CSc1n[nH]c(C(C)C)n1,inactive: 100%
4,CCOC(=O)CSc1nnc(Cn2nnc3ccccc32)n1-c1ccc(F)cc1,inconclusive: 66.6%
5,CCOC(=O)c1c(/N=C/N(C)C)sc(C)c1C,inconclusive: 46.3%
6,Cc1ccc(Nc2c(-c3ccccn3)nc3ccc(C)cn23)cc1,inconclusive: 103%
7,C=C(C)CN(CC)C(=O)CC1C(=O)NCCN1CC(C)(C)C (centres undefined),inconclusive: 89.5%
8,COc1ccc(C(=O)NC(=S)NNC(=O)c2c(-c3ccccc3)noc2C)cc1OC,inconclusive: 68.2%
9,O=C(NC1CC1)c1cc(-c2ccco2)nc2ccccc12,inconclusive: -89.6%
10,CCOC(=O)C1=C(C)NC(=S)NC1c1ccc(C)s1 (centres undefined),inconclusive: 78%
11,OC[C@H]1OC(Nc2ccc(N=Nc3ccccc3)cc2)[C@@H](O)[C@@H](O)[C@@H]1O (some centres undefined),inconclusive: 39%
12,CC1=Nc2ccc(C)cc2/C1=C/c1c(N)n2oc(C)cc2nc1=O,inconclusive: 99%
13,O=C1c2ccccc2C(=O)c2c(Nc3ccc(CCO)cc3)ccc(O)c21,inconclusive: -42.9%
14,COc1ccc(N(CC(=O)NCCC2=CCCCC2)S(=O)(=O)c2ccccc2)cc1,inconclusive: 86.1%
15,O=C(N/N=C/C1=Cc2ccccc2OC1)c1ccncc1,inconclusive: 227%
16,CC(=O)c1cccc(NS(=O)(=O)c2ccc(N/C=C/C(=O)c3ccc(F)cc3)cc2)c1,inactive: 105%
17,C/C(N=Nc1nc2ccccc2s1)=N\Nc1ccccc1O,inconclusive: 94.5%
18,CCC(CC(C)(C)O)C(=O)NNC(=S)Nc1ccccc1 (centres undefined),inactive: 101%
19,Cc1cc(Br)ccc1OCC(=O)NNC(=O)C(=O)Nc1ccccc1,inactive: 97.9%
20,C=C1c2ccccc2S(=O)(=O)N(Cc2ccccc2)C1COCc1ccccc1 (centres undefined),inconclusive: 73.2%
